PubChem BioAssay AID1259405 – NCATS | 2018
Assay: 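Mouse-designed siRNAs used to find CHO productivity engineering targets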 (primary screen). Cell system: Chinese hamster CHO-K1 ovary cells with stable secreted eGFP expression. Reagents: single siRNA against mouse genes, 0.8 pmol siRNA per well (2 µl of 400 nM stock). Timing: 3 days. Read-out: 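Percent of the per-plate non-targeting control median for intracellular GFP per well by laser scanning cytometry and for cell viability by ATP luminescence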. Reading the numbers: GFP, % of control: higher = more GFP per well, higher productivity; viability (ATP), % of control: higher = more viable cells (more ATP). Hit rule: 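Called active when intracellular GFP, relative to negative control, is at or above 120%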.
The deposit covers about 50,000 reagents; this is a part drawn at random. About 4,000 of all reagents (8%) count as active. 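Mouse siRNA library applied to hamster cells; one well for each siRNA.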 Reagents against one gene are numbered here.

| Gene | siRNA no. | GFP, % of control | viability (ATP), % of control | activity call |
| --- | --- | --- | --- | --- |
| Slc37a2 | 1 | 100 | 54.5 | inactive |
| Slc37a2 | 2 | 108 | 55 | inactive |
| Slc37a2 | 3 | 41.2 | 33.5 | inactive |
| Ptgds (prostaglandin D2 synthase (brain)) | 1 | 102 | 64.6 | inactive |
| Ptgds (prostaglandin D2 synthase (brain)) | 2 | 162 | 155 | active |
| Ptgds (prostaglandin D2 synthase (brain)) | 3 | 151 | 93.9 | active |
| Ptgds (prostaglandin D2 synthase (brain)) | 4 | 76 | 102 | inactive |
| Ptgds (prostaglandin D2 synthase (brain)) | 5 | 73.7 | 74.8 | inactive |
| Ptgds (prostaglandin D2 synthase (brain)) | 6 | 101 | 76.8 | inactive |
| Necab3 (N-terminal EF-hand calcium binding protein 3) | 1 | 114 | 49 | inactive |
| Necab3 (N-terminal EF-hand calcium binding protein 3) | 2 | 58 | 71.5 | inactive |
| Necab3 (N-terminal EF-hand calcium binding protein 3) | 3 | 51.1 | 33.6 | inactive |
| Atp6v0d1 (ATPase, H+ transporting, lysosomal V0 subunit D1) | 1 | 44 | 60.9 | inactive |
| Atp6v0d1 (ATPase, H+ transporting, lysosomal V0 subunit D1) | 2 | 66.1 | 70.8 | inactive |
| Atp6v0d1 (ATPase, H+ transporting, lysosomal V0 subunit D1) | 3 | 52.9 | 61.7 | inactive |
| Cphx1 (cytoplasmic polyadenylated homeobox 1) | 1 | 73.5 | 102 | inactive |
| Cphx1 (cytoplasmic polyadenylated homeobox 1) | 2 | 64.2 | 49.8 | inactive |
| Cphx1 (cytoplasmic polyadenylated homeobox 1) | 3 | 128 | 102 | active |
| Nufip1 (nuclear FMR1 interacting protein 1) | 1 | 113 | 72 | inactive |
| Nufip1 (nuclear FMR1 interacting protein 1) | 2 | 60 | 66.6 | inactive |
| Nufip1 (nuclear FMR1 interacting protein 1) | 3 | 56 | 71.1 | inactive |
| Or4e1 (olfactory receptor family 4 subfamily E member 1) | 1 | 62 | 33.9 | inactive |
| Or4e1 (olfactory receptor family 4 subfamily E member 1) | 2 | 96.9 | 56.7 | inactive |
| Or4e1 (olfactory receptor family 4 subfamily E member 1) | 3 | 65.7 | 99.7 | inactive |
| Cdc14b (CDC14 cell division cycle 14B) | 1 | 98.8 | 92.6 | inactive |
| Cdc14b (CDC14 cell division cycle 14B) | 2 | 101 | 83.9 | inactive |
| Cdc14b (CDC14 cell division cycle 14B) | 3 | 74.9 | 70.2 | inactive |
| Itpripl2 | 1 | 67.6 | 67.9 | inactive |
| Itpripl2 | 2 | 98.8 | 78.7 | inactive |
| Itpripl2 | 3 | 47.6 | 60.7 | inactive |
| Ppp2r2b (protein phosphatase 2, regulatory subunit B, beta) | 1 | 105 | 103 | inactive |
| Ppp2r2b (protein phosphatase 2, regulatory subunit B, beta) | 2 | 54.1 | 63.7 | inactive |
| Ppp2r2b (protein phosphatase 2, regulatory subunit B, beta) | 3 | 89 | 96.1 | inactive |
| Slc22a20 | 1 | 114 | 106 | inactive |
| Slc22a20 | 2 | 0 | 581 | inactive |
| Slc22a20 | 3 | 97.5 | 87.6 | inactive |
| Angel2 (angel homolog 2) | 1 | 102 | 126 | inactive |
| Angel2 (angel homolog 2) | 2 | 35.7 | 42.7 | inactive |
| 9930014A18Rik (RIKEN cDNA 9930014A18 gene) | 1 | 62.3 | 62.5 | inactive |
| 9930014A18Rik (RIKEN cDNA 9930014A18 gene) | 2 | 84.4 | 78.4 | inactive |
| 9930014A18Rik (RIKEN cDNA 9930014A18 gene) | 3 | 58 | 54.6 | inactive |
| Tex16 (testis expressed gene 16) | 1 | 48 | 35.9 | inactive |
| Tex16 (testis expressed gene 16) | 2 | 65.9 | 75.3 | inactive |
| Tex16 (testis expressed gene 16) | 3 | 92.2 | 77.9 | inactive |
| Aph1b (aph1 homolog B, gamma secretase subunit) | 1 | 73.7 | 77.9 | inactive |
| Aph1b (aph1 homolog B, gamma secretase subunit) | 2 | 73.2 | 94.4 | inactive |
| Mthfs (5, 10-methenyltetrahydrofolate synthetase) | 1 | 93.4 | 80.7 | inactive |
| Mthfs (5, 10-methenyltetrahydrofolate synthetase) | 2 | 74.4 | 83.8 | inactive |
| Mthfs (5, 10-methenyltetrahydrofolate synthetase) | 3 | 77.1 | 94.6 | inactive |
| Toporsl (topoisomerase I binding, arginine/serine-rich like) | 1 | 133 | 113 | active |
| Toporsl (topoisomerase I binding, arginine/serine-rich like) | 2 | 103 | 55 | inactive |
| Toporsl (topoisomerase I binding, arginine/serine-rich like) | 3 | 72.8 | 50.4 | inactive |
| Or5af2 (olfactory receptor family 5 subfamily AF member 2) | 1 | 64.5 | 63.9 | inactive |
| Or5af2 (olfactory receptor family 5 subfamily AF member 2) | 2 | 107 | 75.3 | inactive |
| Or5af2 (olfactory receptor family 5 subfamily AF member 2) | 3 | 107 | 64.3 | inactive |
| Fndc4 (fibronectin type III domain containing 4) | 1 | 102 | 94.7 | inactive |
| Fndc4 (fibronectin type III domain containing 4) | 2 | 39.5 | 56.5 | inactive |
| Fndc4 (fibronectin type III domain containing 4) | 3 | 96.5 | 52.9 | inactive |
| Adamts15 (ADAM metallopeptidase with thrombospondin type 1 motif 15) | 1 | 114 | 110 | inactive |
| Adamts15 (ADAM metallopeptidase with thrombospondin type 1 motif 15) | 2 | 135 | 94 | active |
| Adamts15 (ADAM metallopeptidase with thrombospondin type 1 motif 15) | 3 | 85.9 | 61.6 | inactive |
| Klk1b1 (kallikrein 1-related peptidase b1) | 1 | 66.8 | 65.4 | inactive |
| Klk1b1 (kallikrein 1-related peptidase b1) | 2 | 30.2 | 53.4 | inactive |
| Klk1b1 (kallikrein 1-related peptidase b1) | 3 | 49.3 | 50.3 | inactive |
| Ero1a (endoplasmic reticulum oxidoreductase 1 alpha) | 1 | 80.8 | 103 | inactive |
| Ero1a (endoplasmic reticulum oxidoreductase 1 alpha) | 2 | 55.5 | 70.5 | inactive |
| Ero1a (endoplasmic reticulum oxidoreductase 1 alpha) | 3 | 71.1 | 71.1 | inactive |
| Micu1 (mitochondrial calcium uptake 1) | 1 | 74.8 | 91.4 | inactive |
| Micu1 (mitochondrial calcium uptake 1) | 2 | 60.6 | 58.8 | inactive |
| Vmn1r179 (vomeronasal 1 receptor 179) | 1 | 79.5 | 72.1 | inactive |
| Vmn1r179 (vomeronasal 1 receptor 179) | 2 | 85.4 | 58 | inactive |
| Vmn1r179 (vomeronasal 1 receptor 179) | 3 | 68.8 | 91.9 | inactive |
| Mapk10 (mitogen-activated protein kinase 10) | 1 | 60.9 | 69.1 | inactive |
| Mapk10 (mitogen-activated protein kinase 10) | 2 | 34.1 | 40.7 | inactive |
| Mapk10 (mitogen-activated protein kinase 10) | 3 | 82.9 | 93.8 | inactive |
| Mapk10 (mitogen-activated protein kinase 10) | 4 | 63.3 | 70.5 | inactive |
| Mapk10 (mitogen-activated protein kinase 10) | 5 | 89.4 | 99.9 | inactive |
| Mapk10 (mitogen-activated protein kinase 10) | 6 | 183 | 157 | active |
| Arhgap45 (Rho GTPase activating protein 45) | 1 | 311 | 121 | active |
| Arhgap45 (Rho GTPase activating protein 45) | 2 | 67.5 | 57.9 | inactive |
| Arhgap45 (Rho GTPase activating protein 45) | 3 | 157 | 89.5 | active |
| Arhgap45 (Rho GTPase activating protein 45) | 4 | 67.2 | 85.1 | inactive |
| Arhgap45 (Rho GTPase activating protein 45) | 5 | 103 | 93.1 | inactive |
| Arhgap45 (Rho GTPase activating protein 45) | 6 | 90.2 | 97 | inactive |
| Itgb3 (integrin beta 3) | 1 | 65.9 | 139 | inactive |
| Itgb3 (integrin beta 3) | 2 | 70.4 | 77.7 | inactive |
| Taar7b (trace amine-associated receptor 7B) | 1 | 97.6 | 52.2 | inactive |
| Taar7b (trace amine-associated receptor 7B) | 2 | 65.8 | 113 | inactive |
| Taar7b (trace amine-associated receptor 7B) | 3 | 54.7 | 63.1 | inactive |
| Dkkl1 (dickkopf-like 1) | 1 | 68.8 | 80.6 | inactive |
| Dkkl1 (dickkopf-like 1) | 2 | 132 | 73.7 | active |
| Dkkl1 (dickkopf-like 1) | 3 | 55.9 | 55.2 | inactive |
| Tifa (TRAF-interacting protein with forkhead-associated domain) | 1 | 102 | 136 | inactive |
| Tifa (TRAF-interacting protein with forkhead-associated domain) | 2 | 149 | 128 | active |
| Tifa (TRAF-interacting protein with forkhead-associated domain) | 3 | 155 | 121 | active |
| Bcl3 (B cell leukemia/lymphoma 3) | 1 | 74.7 | 76.4 | inactive |
| Bcl3 (B cell leukemia/lymphoma 3) | 2 | 79.5 | 82.5 | inactive |
| Bcl3 (B cell leukemia/lymphoma 3) | 3 | 92.5 | 109 | inactive |
| Unc93b1 (unc-93 homolog B1, TLR signaling regulator) | 1 | 76.6 | 71.4 | inactive |
| Unc93b1 (unc-93 homolog B1, TLR signaling regulator) | 2 | 40 | 76 | inactive |
| Unc93b1 (unc-93 homolog B1, TLR signaling regulator) | 3 | 56.7 | 64.6 | inactive |
| Crb3 (crumbs family member 3) | 1 | 63.6 | 56 | inactive |
| Crb3 (crumbs family member 3) | 2 | 65.5 | 58.6 | inactive |
| Crb3 (crumbs family member 3) | 3 | 109 | 104 | inactive |
| Osbpl1a (oxysterol binding protein-like 1A) | 1 | 69.5 | 82.7 | inactive |
| Osbpl1a (oxysterol binding protein-like 1A) | 2 | 88.5 | 69.8 | inactive |
| Osbpl1a (oxysterol binding protein-like 1A) | 3 | 88.6 | 80 | inactive |
